Our source for the binding signal values is PMC7819943, “Rice protein-binding microarrays: a tool to detect cis-acting elements near promoter regions in rice”.

Chains of the proteins cited; added tags and fusions are not shown.
UniProt Q0JBA9, entry or part of it: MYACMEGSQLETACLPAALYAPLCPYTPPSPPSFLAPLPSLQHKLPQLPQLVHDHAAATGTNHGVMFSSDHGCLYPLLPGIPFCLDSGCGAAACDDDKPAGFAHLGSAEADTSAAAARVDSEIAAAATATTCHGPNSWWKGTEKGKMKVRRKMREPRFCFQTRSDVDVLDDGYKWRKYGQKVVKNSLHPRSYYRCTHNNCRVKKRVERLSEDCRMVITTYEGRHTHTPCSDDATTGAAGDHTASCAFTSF

The other results are listed elsewhere or left out.

The assay has as its target OsWRKY34 (Oryza sativa, UniProt Q0JBA9 1-250). The experiment in a line: protein-binding microarray (RPBM); PBS, 2% BSA, 51.3 ng/ul salmon testes DNA, 50 uM zinc acetate, 200 nM TF, 25 C, 1 h; high values mean tight binding. The settings on record: protein: recombinant; tags: N-terminal polyhistidine and DsRed monomer fusion (pET32a); label: CyDye5-dUTP incorporated in the synthesized complementary strand; 3' TTTTT single-stranded linker to array surface; dsDNA, one strand shown. An outline of the steps: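 Using Ni–NTA, transcription factors fused N-terminally to polyhistidine and DsRed were purified after expression in E. coli BL21-CodonPlus. These were incubated at 200 nM with a blocked, double-stranded custom Agilent array for 1 h at 25 °C in a buffer containing 50 µM zinc acetate, and the array was washed. The binding signal is per-feature fluorescence intensity (arbitrary units) on an Axon 4000B scanner.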
On to “TTTGGTTGTCACATCGGACGTCGAAAGGAGCTTTTGGACACGGAGTCACCTAGTGCAG”, for which the binding signal was 8350 fluorescence intensity (a.u.).
In the case of “TATCCGACCTGCCTCATCTGCCAATCATTGCATTCCATATCGGAGTCACCTAGTGCAG” it was 10200 fluorescence intensity (a.u.).
As for “TCTCTCCCGTTCCATGTCCGCTCAACCTTGCTTCCATTCTCGGAGTCACCTAGTGCAG”, the binding signal is 13400 fluorescence intensity (a.u.).
With “AGAGAGAGAGAGCCACTTGCGTGCTGGCCTCTCTCACTGTCGGAGTCACCTAGTGCAG”, the binding signal is 8780 fluorescence intensity (a.u.).
“CTATTGGGTTTGTTCGCTGCAGCTAAATTGCAGCTGCTGTCGGAGTCACCTAGTGCAG”: the binding signal was 9830 fluorescence intensity (a.u.).
For the sequence “TCAGTCGCTTCCTCTCTTTATTATCACAGATTCACAGTCCCGGAGTCACCTAGTGCAG”, the binding signal is 8370 fluorescence intensity (a.u.).
As for “GTAGGAGGGTGGTTGGTTGTAGAATGGGAAGAAATTTGAACGGAGTCACCTAGTGCAG”, the binding signal is 11100 fluorescence intensity (a.u.).
In the case of “GCGACGTTGACCTCTGCGAGCCCATGACATGGCACCATTACGGAGTCACCTAGTGCAG” it was 10400 fluorescence intensity (a.u.); in that of “TCCAATTTCAACTTCCAAGTTCTGTACTCCCAACCTTTTCCGGAGTCACCTAGTGCAG”, 10300 fluorescence intensity (a.u.).
Consider “TTTGCAACAAAAAGAAGTGCTTACGCTGTCACTTGCTCACCGGAGTCACCTAGTGCAG”, for which the binding signal was 8120 fluorescence intensity (a.u.).
In the case of “CACGGCGGCGGATGGGGAAGGGGTGGGGCAGGACAGGAGGCGGAGTCACCTAGTGCAG”, the binding signal is 14100 fluorescence intensity (a.u.).
In the case of “AATTGGATCGTCACTGGTTAACCCTAAACCTACCGTTTTTCGGAGTCACCTAGTGCAG” it was 9770 fluorescence intensity (a.u.); in that of “ATTCTTTGCTAGGTATATACATCTGCAGTGCGTTCGCAAACGGAGTCACCTAGTGCAG”, 8180 fluorescence intensity (a.u.); in that of “TTCCTAGCTTTTAAGTTTGACCAAATCTCTATTATTATAACGGAGTCACCTAGTGCAG”, 8350 fluorescence intensity (a.u.).
With “ACTCCGGATCTCTGCGCCACACCACTCATCAGCTCGCTCTCGGAGTCACCTAGTGCAG”, the binding signal is 11900 fluorescence intensity (a.u.).
In the case of “CACCAACTCATTCTTACACCTACACCTACGTATTCATTCACGGAGTCACCTAGTGCAG” it was 8130 fluorescence intensity (a.u.); in that of “CCCTACTGATCAGATTATCATGGCACACTTTAGCTCATTGCGGAGTCACCTAGTGCAG”, 9340 fluorescence intensity (a.u.).
Consider “TGTTGTATGGGTTGTTCGGGCTCTAATAAAGAAACTAATTCGGAGTCACCTAGTGCAG”, for which the binding signal was 9090 fluorescence intensity (a.u.).
Regarding “TTTTTTCTTTACTTTGCGCCCGGCCATTGTAAGGTCCGCACGGAGTCACCTAGTGCAG”, the binding signal was 8760 fluorescence intensity (a.u.).
In the case of “TTTTCAGCTGTCGCTTCATACCAGGGTTAAATCTCGCGGTCGGAGTCACCTAGTGCAG” it was 9510 fluorescence intensity (a.u.); in that of “TTAATATTTTATGCGTGACTTGTCTTTTTAATTTTTTTCACGGAGTCACCTAGTGCAG”, 11900 fluorescence intensity (a.u.); in that of “CAACTGAACTTTCATCCTTTCGTTCCTACAGTTCGTCAGTCGGAGTCACCTAGTGCAG”, 14200 fluorescence intensity (a.u.).
For the sequence “TCTTCCTCTCCATTCCATTGGCCATTCCATTCCATTCCACCGGAGTCACCTAGTGCAG”, the binding signal is 9960 fluorescence intensity (a.u.).
Turning to “GTGGAAGGGGTGGGCAATTAGCTAGAGCAGCAGGTGCTGTCGGAGTCACCTAGTGCAG”, the binding signal is 8830 fluorescence intensity (a.u.).
For “CACTTGCATATTGAGCTTTAGGAGTTAGTGAACATTAACTCGGAGTCACCTAGTGCAG” the value was 8860 fluorescence intensity (a.u.); for “TCGATTCCGCTTCGATATCCAACTCTATCTTGTCAAATTTCGGAGTCACCTAGTGCAG”, 8310 fluorescence intensity (a.u.); for “CAAACACATACAGCAGCATCACCAGCTCAGTTAATTGCAACGGAGTCACCTAGTGCAG”, 8250 fluorescence intensity (a.u.).
As to “TCTCTACATAATGTGCCTTCACTGAACCAGTGTAATTTCTCGGAGTCACCTAGTGCAG”, the binding signal was 10400 fluorescence intensity (a.u.).
For the sequence “GTGTTTACTTTTCTACTTCTTCTGTCCTAAAAATATATATCGGAGTCACCTAGTGCAG”, the binding signal is 9640 fluorescence intensity (a.u.).
Turning to “TCATAGTGGTTTTCCCATCCAAATACCTGTTGGCCATTCGCGGAGTCACCTAGTGCAG”, the binding signal is 8380 fluorescence intensity (a.u.).
As for “CACGCGGGTGGGCGGGTCGGGTCTCCTCTCGCCGAAGCGCCGGAGTCACCTAGTGCAG”, the binding signal is 12400 fluorescence intensity (a.u.).
For “TGATGTGGATCTGCCAGCTACTTCTTCCGTGGTTTACTGCCGGAGTCACCTAGTGCAG”, the binding signal was 8500 fluorescence intensity (a.u.).
As to “CCCACCACTCTGCGCCGCCCCACCGTCGCTTGCCCTTTTGCGGAGTCACCTAGTGCAG”, the binding signal is 10600 fluorescence intensity (a.u.).
In the case of “GCTCCTTCTAGCTCCTGCTGCTTTGTTGTCTTCAGATGGACGGAGTCACCTAGTGCAG” it was 13200 fluorescence intensity (a.u.); in that of “GCCACCGGAAGTACTCCTACGCCCTAACTTTACGTATACCCGGAGTCACCTAGTGCAG”, 8150 fluorescence intensity (a.u.).
For the sequence “TCACCATCTCGACTCAGCCAATCCATTTCTAAATTTTATACGGAGTCACCTAGTGCAG”, the binding signal was 8690 fluorescence intensity (a.u.).
As for “TTAATCTTATAATTACGGTCATGTGGTTTTGTGAAATTTACGGAGTCACCTAGTGCAG”, the binding signal is 8560 fluorescence intensity (a.u.).
On to “GTACACCGAAAGAAACCAACTCGTGTCCATCCATCCGTCTCGGAGTCACCTAGTGCAG”, for which the binding signal was 8070 fluorescence intensity (a.u.).
In the case of “ATGGGTTGTGCTGTTCTAGCTTCTATACGTGTCGAATCATCGGAGTCACCTAGTGCAG”, the binding signal is 9100 fluorescence intensity (a.u.).
As to “TCTGCTTTGTTAGCTCTCGGAGTCTCGGTTCGTCCTCGCGCGGAGTCACCTAGTGCAG”, the binding signal is 8130 fluorescence intensity (a.u.).
Turning to “TTTCGCCTACCGCACTCACTGCTCACAACCACCGAATCCTCGGAGTCACCTAGTGCAG”, the binding signal is 9500 fluorescence intensity (a.u.).
Regarding “CGTTGTTGTGTTTCTCTCCACTTCACTGTGCTGCTGTTCGCGGAGTCACCTAGTGCAG”, the binding signal is 9220 fluorescence intensity (a.u.).
Turning to “TTAAAAAGTCAACGGCGTTATACATTAAAGAGATAATCCACGGAGTCACCTAGTGCAG”, the binding signal was 8670 fluorescence intensity (a.u.).
For “TGGCACATTCTCATCGTATTTTCTTGTTGCTCTATGTATGCGGAGTCACCTAGTGCAG” the value was 8860 fluorescence intensity (a.u.); for “GTTCTGTATATATCTCTTTCCCTATCCCTCCGTATTAATCCGGAGTCACCTAGTGCAG”, 9380 fluorescence intensity (a.u.).
For “CTTGCTGTTTGTATAACATCTTGTTTCTGTTTCAGGTATGCGGAGTCACCTAGTGCAG” the value was 9280 fluorescence intensity (a.u.); for “TTTCATCCGTATTGTTCCGCTTCCGGTTTTCTGATATTTTCGGAGTCACCTAGTGCAG”, 14100 fluorescence intensity (a.u.).
For the sequence “GTAGTTAGTTAGGTTGTTAGTCGTGTGAGCTGCATGTATACGGAGTCACCTAGTGCAG”, the binding signal is 8700 fluorescence intensity (a.u.).
Regarding “TGGTTCTTGCTCTTGTTCTTGCTGCTGCTGCTTTTGCTCTCGGAGTCACCTAGTGCAG”, the binding signal is 9380 fluorescence intensity (a.u.).
As for “GCTTTAAAATGGAGATGGGTATGGTAGGCAATCAATTTCCCGGAGTCACCTAGTGCAG”, the binding signal is 10200 fluorescence intensity (a.u.).
For the sequence “TGTAATTGTTTTTTCGTCCACATTTAGTGCTCCATGTATACGGAGTCACCTAGTGCAG”, the binding signal was 9780 fluorescence intensity (a.u.).
In the case of “TTTTTTGGTTGTTGATATGATGTTCTTTTTTCCTCATTCTCGGAGTCACCTAGTGCAG” it was 8990 fluorescence intensity (a.u.); in that of “TGATTTTTTTTTTGTTTCACAGTGCACAGACCAATGTTTCCGGAGTCACCTAGTGCAG”, 8320 fluorescence intensity (a.u.); in that of “GTCACCAGTGTCCGCCAATAATTTGCACATCTTCTCATATCGGAGTCACCTAGTGCAG”, 10300 fluorescence intensity (a.u.).
